Experimental data from publication PMC2391170.
These are yes or no findings as the source states them, for the method shown. Some results given as binding are weak or reduced against the parent protein; the word gives no strength. Each block holds one binder with its values, some of them ahead of it.

Tests used:
Assay in all cases: two-hybrid; AD (pGAD-C(1)) and BD (pGBD-C(1)) fusions in yeast PJ69-4; dual transformants tested on media lacking leucine, tryptophan and adenine; positive if all tested colonies (4 to 10) grew; both combinations of clones tested whenever possible
AtCSTF64 (Arabidopsis) = molecular target: T1, AtCSTF64 (Arabidopsis) (UniProt Q9M9G6)
T1 sequence: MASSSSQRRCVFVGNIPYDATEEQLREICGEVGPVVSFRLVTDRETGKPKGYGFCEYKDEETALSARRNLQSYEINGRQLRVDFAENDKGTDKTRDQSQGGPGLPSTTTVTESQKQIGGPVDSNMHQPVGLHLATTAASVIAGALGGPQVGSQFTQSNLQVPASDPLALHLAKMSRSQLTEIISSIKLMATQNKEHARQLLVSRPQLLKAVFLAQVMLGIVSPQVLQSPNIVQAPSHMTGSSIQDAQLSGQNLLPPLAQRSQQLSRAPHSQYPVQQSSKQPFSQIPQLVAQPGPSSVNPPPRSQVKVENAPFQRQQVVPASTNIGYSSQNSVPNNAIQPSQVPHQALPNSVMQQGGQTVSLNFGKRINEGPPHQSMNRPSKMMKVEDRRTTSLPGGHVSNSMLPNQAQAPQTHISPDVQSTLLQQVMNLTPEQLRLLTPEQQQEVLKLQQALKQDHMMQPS

AtCSTF77 (Arabidopsis) = molecular target: T2, AtCSTF77 (Arabidopsis) (UniProt Q8GUP1)
T2 sequence: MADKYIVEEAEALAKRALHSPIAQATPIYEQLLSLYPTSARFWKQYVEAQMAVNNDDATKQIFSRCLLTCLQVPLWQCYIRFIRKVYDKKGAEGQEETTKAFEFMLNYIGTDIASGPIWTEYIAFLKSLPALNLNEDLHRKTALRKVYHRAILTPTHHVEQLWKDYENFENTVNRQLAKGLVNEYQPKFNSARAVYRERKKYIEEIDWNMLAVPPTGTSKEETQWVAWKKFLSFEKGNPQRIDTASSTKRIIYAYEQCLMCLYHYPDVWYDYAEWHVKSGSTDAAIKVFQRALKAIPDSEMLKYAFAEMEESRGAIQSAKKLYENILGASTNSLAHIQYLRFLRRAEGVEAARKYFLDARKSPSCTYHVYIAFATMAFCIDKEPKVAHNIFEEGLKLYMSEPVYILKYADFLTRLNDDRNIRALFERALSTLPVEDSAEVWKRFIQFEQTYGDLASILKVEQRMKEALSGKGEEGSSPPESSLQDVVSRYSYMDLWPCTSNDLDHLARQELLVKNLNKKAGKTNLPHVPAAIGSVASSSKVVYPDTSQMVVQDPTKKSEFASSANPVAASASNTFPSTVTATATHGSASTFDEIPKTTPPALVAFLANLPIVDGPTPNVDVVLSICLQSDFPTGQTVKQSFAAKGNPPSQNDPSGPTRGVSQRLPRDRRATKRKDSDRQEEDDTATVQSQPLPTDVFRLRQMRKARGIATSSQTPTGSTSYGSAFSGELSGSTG

AtFIPS5 (Arabidopsis) = molecular target: T3, AtFIPS5 (Arabidopsis) (UniProt F4KDH9)
T3 sequence: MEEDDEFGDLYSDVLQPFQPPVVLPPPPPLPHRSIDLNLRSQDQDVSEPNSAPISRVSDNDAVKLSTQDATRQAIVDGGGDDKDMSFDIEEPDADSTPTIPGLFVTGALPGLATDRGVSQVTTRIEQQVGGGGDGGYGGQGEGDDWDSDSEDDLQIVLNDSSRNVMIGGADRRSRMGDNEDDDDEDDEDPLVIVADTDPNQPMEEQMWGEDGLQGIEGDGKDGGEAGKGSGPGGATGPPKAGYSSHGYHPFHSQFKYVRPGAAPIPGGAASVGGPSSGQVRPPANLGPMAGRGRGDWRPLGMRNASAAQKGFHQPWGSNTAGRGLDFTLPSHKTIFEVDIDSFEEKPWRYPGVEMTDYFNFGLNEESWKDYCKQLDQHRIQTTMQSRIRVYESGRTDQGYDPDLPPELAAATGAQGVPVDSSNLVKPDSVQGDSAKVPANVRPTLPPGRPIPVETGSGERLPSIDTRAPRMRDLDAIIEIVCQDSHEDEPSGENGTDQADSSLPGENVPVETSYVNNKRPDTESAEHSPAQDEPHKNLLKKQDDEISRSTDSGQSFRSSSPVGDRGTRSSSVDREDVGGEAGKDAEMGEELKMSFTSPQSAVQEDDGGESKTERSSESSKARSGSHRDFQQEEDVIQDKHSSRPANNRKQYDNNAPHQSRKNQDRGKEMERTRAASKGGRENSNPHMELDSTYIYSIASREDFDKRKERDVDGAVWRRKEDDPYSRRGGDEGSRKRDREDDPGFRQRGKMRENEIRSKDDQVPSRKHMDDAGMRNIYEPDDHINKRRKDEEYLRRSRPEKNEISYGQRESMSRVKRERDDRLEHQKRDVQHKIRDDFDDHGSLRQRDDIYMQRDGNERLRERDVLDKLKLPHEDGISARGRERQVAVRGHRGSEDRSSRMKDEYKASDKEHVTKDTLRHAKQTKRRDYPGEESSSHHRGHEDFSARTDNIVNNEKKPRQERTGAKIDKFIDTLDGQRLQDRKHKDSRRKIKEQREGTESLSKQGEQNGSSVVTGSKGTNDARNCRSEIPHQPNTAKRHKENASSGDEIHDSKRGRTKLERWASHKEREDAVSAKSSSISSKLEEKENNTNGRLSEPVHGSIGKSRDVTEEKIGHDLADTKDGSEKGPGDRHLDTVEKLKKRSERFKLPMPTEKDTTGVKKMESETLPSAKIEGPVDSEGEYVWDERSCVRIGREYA

AtCPSF100 (Arabidopsis) = molecular target: T4, AtCPSF100 (Arabidopsis) (UniProt Q9LKF9)
T4 sequence: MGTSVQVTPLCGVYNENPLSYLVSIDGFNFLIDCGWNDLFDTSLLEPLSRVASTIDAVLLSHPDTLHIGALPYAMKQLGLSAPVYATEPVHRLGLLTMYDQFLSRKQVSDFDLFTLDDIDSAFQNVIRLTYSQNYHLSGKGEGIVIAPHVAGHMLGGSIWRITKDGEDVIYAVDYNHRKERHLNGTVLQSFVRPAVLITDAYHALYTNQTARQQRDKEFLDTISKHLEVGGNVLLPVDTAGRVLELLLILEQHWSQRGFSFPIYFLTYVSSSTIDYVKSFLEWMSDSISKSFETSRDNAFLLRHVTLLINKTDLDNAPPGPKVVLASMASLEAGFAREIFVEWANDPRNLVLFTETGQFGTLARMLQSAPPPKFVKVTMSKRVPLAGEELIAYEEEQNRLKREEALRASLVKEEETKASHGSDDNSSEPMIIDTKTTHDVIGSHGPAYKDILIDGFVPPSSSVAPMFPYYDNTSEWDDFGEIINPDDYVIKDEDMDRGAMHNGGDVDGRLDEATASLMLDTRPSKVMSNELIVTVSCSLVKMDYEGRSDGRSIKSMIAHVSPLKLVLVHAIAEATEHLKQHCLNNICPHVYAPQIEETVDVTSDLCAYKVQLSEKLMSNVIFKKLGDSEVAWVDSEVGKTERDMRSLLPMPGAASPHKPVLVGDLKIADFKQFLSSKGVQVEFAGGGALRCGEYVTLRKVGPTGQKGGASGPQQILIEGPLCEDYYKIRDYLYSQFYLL

binding (AtCSTF64 (Arabidopsis)): binds
binding (AtCSTF77 (Arabidopsis)): no binding
B1: AtCSTF50 (protein, UniProt Q8L4J2 1-429)
chain: MGNSGDLEQALQDGNIFRQLNALIVAHLRHHNLSQVASAVASATMTPLNIEVPPNRLLELVAKGLAAENNGTLRGVSSSVLLPSSYGSITTPRTASIDFSVNHAKGSSKTIPKHESKTLSEHKSVVRCARFSPDGMFFATGGADTSIKLFEVPKVKQMISGDTQARPLIRTFYDHAEPINDLDFHPRSTILISSAKDNCIKFFDFSKTTAKRAFKVFQDTHNVRSISFHPSGEFLLAGTDHPIPHLYDVNTYQCFLPSNFPDSGVSGAINQVRYSSTGSIYITASKDGAIRLFDGVSAKCVRSIGNAHGKSEVTSAVFTKDQRFVLSSGKDSTVKLWEIGSGRMVKEYLGAKRVKLRSQAIFNDTEEFVISIDEASNEVVTWDARTADKVAKWPSNHNGAPRWIEHSPVESVFVTCGIDRSIRFWKESV

binding (AtCSTF64 (Arabidopsis)): binds
binding (AtFIPS5 (Arabidopsis)): binds
B2: AtCSTF77 (protein, UniProt Q8GUP1 1-734)
chain: T2 sequence

binding (AtCPSF100 (Arabidopsis)): binds
B3: AtCPSF160 (protein, UniProt Q9FGR0 1-1442)
chain: MSFAAYKMMHWPTGVENCASGYITHSLSDSTLQIPIVSVHDDIEAEWPNPKRGIGPLPNVVITAANILEVYIVRAQEEGNTQELRNPKLAKRGGVMDGVYGVSLELVCHYRLHGNVESIAVLPMGGGNSSKGRDSIILTFRDAKISVLEFDDSIHSLRMTSMHCFEGPDWLHLKRGRESFPRGPLVKVDPQGRCGGVLVYGLQMIILKTSQVGSGLVGDDDAFSSGGTVSARVESSYIINLRDLEMKHVKDFVFLHGYIEPVIVILQEEEHTWAGRVSWKHHTCVLSALSINSTLKQHPVIWSAINLPHDAYKLLAVPSPIGGVLVLCANTIHYHSQSASCALALNNYASSADSSQELPASNFSVELDAAHGTWISNDVALLSTKSGELLLLTLIYDGRAVQRLDLSKSKASVLASDITSVGNSLFFLGSRLGDSLLVQFSCRSGPAASLPGLRDEDEDIEGEGHQAKRLRMTSDTFQDTIGNEELSLFGSTPNNSDSAQKSFSFAVRDSLVNVGPVKDFAYGLRINADANATGVSKQSNYELVCCSGHGKNGALCVLRQSIRPEMITEVELPGCKGIWTVYHKSSRGHNADSSKMAADEDEYHAYLIISLEARTMVLETADLLTEVTESVDYYVQGRTIAAGNLFGRRRVIQVFEHGARILDGSFMNQELSFGASNSESNSGSESSTVSSVSIADPYVLLRMTDDSIRLLVGDPSTCTVSISSPSVLEGSKRKISACTLYHDKGPEPWLRKASTDAWLSSGVGEAVDSVDGGPQDQGDIYCVVCYESGALEIFDVPSFNCVFSVDKFASGRRHLSDMPIHELEYELNKNSEDNTSSKEIKNTRVVELAMQRWSGHHTRPFLFAVLADGTILCYHAYLFDGVDSTKAENSLSSENPAALNSSGSSKLRNLKFLRIPLDTSTREGTSDGVASQRITMFKNISGHQGFFLSGSRPGWCMLFRERLRFHSQLCDGSIAAFTVLHNVNCNHGFIYVTAQGVLKICQLPSASIYDNYWPVQKIPLKATPHQVTYYAEKNLYPLIVSYPVSKPLNQVLSSLVDQEAGQQLDNHNMSSDDLQRTYTVEEFEIQILEPERSGGPWETKAKIPMQTSEHALTVRVVTLLNASTGENETLLAVGTAYVQGEDVAARGRVLLFSFGKNGDNSQNVVTEVYSRELKGAISAVASIQGHLLISSGPKIILHKWNGTELNGVAFFDAPPLYVVSMNVVKSFILLGDVHKSIYFLSWKEQGSQLSLLAKDFESLDCFATEFLIDGSTLSLAVSDEQKNIQVFYYAPKMIESWKGLKLLSRAEFHVGAHVSKFLRLQMVSSGADKINRFALLFGTLDGSFGCIAPLDEVTFRRLQSLQKKLVDAVPHVAGLNPLAFRQFRSSGKARRSGPDSIVDCELLCHYEMLPLEEQLELAHQIGTTRYSILKDLVDLSVGTSFL
